Results are given in words; binding and its absence hold for the method and conditions named. Some binding calls cover weakened binding; strength is not graded here.
What was measured:
[1] = molecular target: T1, mouse PK2 receptor (mouse, UniProt Q8K458 1-381); assay: binding assay with radioiodinated ligand (FIG. 11 legend)
T1 construct: G-protein coupled receptor; also called PKR2; mouse PKR2

By UniProt entry, the sequences of proteins in these tests, tags left out. Where a name states a change or a piece, a line headed by the entry shows the natural chain unless it says otherwise.
UniProt Q8K458: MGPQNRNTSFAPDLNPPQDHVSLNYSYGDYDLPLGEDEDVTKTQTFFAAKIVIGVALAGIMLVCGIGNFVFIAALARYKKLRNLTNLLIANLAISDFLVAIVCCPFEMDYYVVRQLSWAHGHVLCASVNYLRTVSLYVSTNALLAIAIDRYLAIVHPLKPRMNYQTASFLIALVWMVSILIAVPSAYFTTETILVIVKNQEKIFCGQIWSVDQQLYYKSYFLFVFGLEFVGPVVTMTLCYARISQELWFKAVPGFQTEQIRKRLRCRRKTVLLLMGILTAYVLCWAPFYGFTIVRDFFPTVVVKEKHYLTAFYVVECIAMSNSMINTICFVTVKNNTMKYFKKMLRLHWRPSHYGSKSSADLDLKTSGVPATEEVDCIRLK

[2] = molecular target: T1, mouse PK2 receptor; assay: calcium mobilization assay (FIG. 12 legend)

| binding [1] | binding [2] | Binder |
| --- | --- | --- |
| binds | – | 125I-human PK2 (iodinated human prokineticin 2) (ligand, radioiodinated with 125I (residue not stated for this assay), also called iodinated PK2) AVITGACDKDSQCGGGMCCAVSIWVKSIRICTPMGKLGDSCHPLTRKVPFFGRRMHHTCPCLPGLACLRTSFNRFICLAQK |
| – | binds | human PK2 (prokineticin 2) (ligand) AVITGACDKDSQCGGGMCCAVSIWVKSIRICTPMGKLGDSCHPLTRKVPFFGRRMHHTCPCLPGLACLRTSFNRFICLAQK |
